# Test results from the supplement of paper PMC8728848.
# Some of the results follow.
# B1: cFel (Cyprinus carpio), P68512 (protein)
# chain: LDCTVIDGNLKQIDAGSGSVVGVNNLNETFVLIDNVFTKISGSLKHFSVGPAGQLGVNTANNIFKYQSGGFVQLAGLLKQVDAGGDQIIAGVNMYDDIYCLNMDANNKWPSSNTPWVQINGKLKYYSCGPYSCWGVNSNDQIFIMKDVSSNVCSGSGSFINIPGLLSMIEVATDGSVFGVNSQGNLYQRTGVTRSKPDGTDWISMVACPNGHKHVSFDLGVLWLVCVDGSIRKCILTD
# Assays:
# Experiment in all cases: glycan array binding signal (z-score within array); higher = stronger binding
# Settings in all cases: glycan notation: IUPAC condensed, linker removed
# [1] = molecular target: Gal(b1-3)GlcNAc(b1-6)GalNAc
# In short: (§1)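 Glycan array data came from 3228 arrays in the Consortium for Functional Glycomics database, and only arrays with an available protein sequence were kept. Glycan names were put into IUPAC-condensed notation, and columns mapping to the same glycan were averaged. The binding signal is a within-array Z-score, averaged across arrays of one protein sequence run at different concentrations or buffers and across linkers. A negative Z-score can be read as non-binding.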
# [2] = molecular target: Gal(b1-3)GlcNAc(b1-6)[Gal(b1-3)]GalNAc
# In short: as §1
# [3] = molecular target: Gal(b1-3)GlcNAc6S
# In short: as §1
# [4] = molecular target: Gal(b1-3)[Fuc(a1-4)]GlcNAc
# In short: as §1
# [5] = molecular target: Gal(b1-3)[Fuc(a1-4)]GlcNAc(b1-2)Man
# In short: as §1
# [6] = molecular target: Gal(b1-3)[Fuc(a1-4)]GlcNAc(b1-2)Man(a1-3)[Gal(b1-3)[Fuc(a1-4)]GlcNAc(b1-2)Man(a1-6)]Man(b1-4)GlcNAc(b1-4)[Fuc(a1-6)]GlcNAc
# In short: as §1
# [7] = molecular target: Gal(b1-3)[Fuc(a1-4)]GlcNAc(b1-3)Gal(b1-3)[Fuc(a1-4)]GlcNAc
# In short: as §1
# [8] = molecular target: Gal(b1-3)[Fuc(a1-4)]GlcNAc(b1-3)Gal(b1-4)[Fuc(a1-3)]GlcNAc
# In short: as §1
# [9] = molecular target: Gal(b1-3)[Fuc(a1-4)]GlcNAc(b1-6)GalNAc
# In short: as §1
# [10] = molecular target: Gal(b1-3)[GlcNAc(b1-6)]GalNAc
# In short: as §1
# [11] = molecular target: Gal(b1-3)[Neu5Ac(a2-6)]GalNAc
# In short: as §1
# [12] = molecular target: Gal(b1-3)[Neu5Ac(a2-6)]GlcNAc(b1-4)Gal(b1-4)Glc
# In short: as §1
# [13] = molecular target: Gal(b1-3)[Neu5Ac(b2-6)]GalNAc
# In short: as §1
# [14] = molecular target: Gal(b1-4)Gal
# In short: as §1
# [15] = molecular target: Gal(b1-4)GalNAc(a1-3)[Fuc(a1-2)]Gal(b1-4)GlcNAc
# In short: as §1
# [16] = molecular target: Gal(b1-4)GalNAc(b1-3)[Fuc(a1-2)]Gal(b1-4)GlcNAc
# In short: as §1
# [17] = molecular target: Gal(b1-4)Glc
# In short: as §1
# [18] = molecular target: Gal(b1-4)Glc6S
# In short: as §1
# [19] = molecular target: Gal(b1-4)GlcNAc
# In short: as §1
# [20] = molecular target: Gal(b1-4)GlcNAc(a1-6)Gal(b1-4)GlcNAc
# In short: as §1
# [21] = molecular target: Gal(b1-4)GlcNAc(b1-2)Man
# In short: as §1
# [22] = molecular target: Gal(b1-4)GlcNAc(b1-2)Man(a1-3)Man(b1-4)GlcNAc(b1-4)GlcNAc
# In short: as §1
# [23] = molecular target: Gal(b1-4)GlcNAc(b1-2)Man(a1-3)[Gal(b1-4)GlcNAc(b1-2)Man(a1-6)]Man(b1-4)GlcNAc(b1-4)GlcNAc
# In short: as §1
# [24] = molecular target: Gal(b1-4)GlcNAc(b1-2)Man(a1-3)[Gal(b1-4)GlcNAc(b1-2)Man(a1-6)]Man(b1-4)GlcNAc(b1-4)[Fuc(a1-6)]GlcNAc
# In short: as §1
# [25] = molecular target: Gal(b1-4)GlcNAc(b1-2)Man(a1-3)[Gal(b1-4)GlcNAc(b1-2)Man(a1-6)][Gal(b1-4)GlcNAc(b1-4)]Man(b1-4)GlcNAc(b1-4)[Fuc(a1-6)]GlcNAc
# In short: as §1
# [26] = molecular target: Gal(b1-4)GlcNAc(b1-2)Man(a1-3)[Gal(b1-4)GlcNAc(b1-2)Man(a1-6)][GlcNAc(b1-4)]Man(b1-4)GlcNAc(b1-4)[Fuc(a1-6)]GlcNAc
# In short: as §1
# [27] = molecular target: Gal(b1-4)GlcNAc(b1-2)Man(a1-3)[GlcNAc(b1-2)Man(a1-6)]Man(b1-4)GlcNAc(b1-4)GlcNAc
# In short: as §1
# [28] = molecular target: Gal(b1-4)GlcNAc(b1-2)Man(a1-3)[GlcNAc(b1-4)][Gal(b1-4)GlcNAc(b1-2)Man(a1-6)]Man(b1-4)GlcNAc(b1-4)GlcNAc
# In short: as §1
# [29] = molecular target: Gal(b1-4)GlcNAc(b1-2)Man(a1-3)[Man(a1-6)]Man(b1-4)GlcNAc(b1-4)GlcNAc
# In short: as §1
# [30] = molecular target: Gal(b1-4)GlcNAc(b1-2)Man(a1-6)Man(b1-4)GlcNAc(b1-4)GlcNAc
# In short: as §1
# [31] = molecular target: Gal(b1-4)GlcNAc(b1-2)Man(a1-6)[GlcNAc(b1-2)Man(a1-3)]Man(b1-4)GlcNAc(b1-4)GlcNAc
# In short: as §1
# [32] = molecular target: Gal(b1-4)GlcNAc(b1-2)Man(a1-6)[Man(a1-3)]Man(b1-4)GlcNAc(b1-4)GlcNAc
# In short: as §1
# [33] = molecular target: Gal(b1-4)GlcNAc(b1-2)[Gal(b1-4)GlcNAc(b1-4)]Man(a1-3)[Gal(b1-4)GlcNAc(b1-2)Man(a1-6)]Man(b1-4)GlcNAc(b1-4)GlcNAc
# In short: as §1
# [34] = molecular target: Gal(b1-4)GlcNAc(b1-2)[Gal(b1-4)GlcNAc(b1-4)]Man(a1-3)[Gal(b1-4)GlcNAc(b1-2)[Gal(b1-4)GlcNAc(b1-6)]Man(a1-6)]Man(b1-4)GlcNAc(b1-4)GlcNAc
# In short: as §1
# [35] = molecular target: Gal(b1-4)GlcNAc(b1-2)[Gal(b1-4)GlcNAc(b1-4)]Man(a1-3)[GlcNAc(b1-4)][Gal(b1-4)GlcNAc(b1-2)Man(a1-6)]Man(b1-4)GlcNAc(b1-4)GlcNAc
# In short: as §1
# [36] = molecular target: Gal(b1-4)GlcNAc(b1-2)[Gal(b1-4)GlcNAc(b1-4)]Man(a1-3)[GlcNAc(b1-4)][Gal(b1-4)GlcNAc(b1-2)[Gal(b1-4)GlcNAc(b1-6)]Man(a1-6)]Man(b1-4)GlcNAc(b1-4)GlcNAc
# In short: as §1
# [37] = molecular target: Gal(b1-4)GlcNAc(b1-2)[Gal(b1-4)GlcNAc(b1-6)]Man(a1-6)[Gal(b1-4)GlcNAc(b1-2)Man(a1-3)]Man(b1-4)GlcNAc(b1-4)GlcNAc
# In short: as §1
# [38] = molecular target: Gal(b1-4)GlcNAc(b1-2)[Gal(b1-4)GlcNAc(b1-6)]Man(a1-6)[Gal(b1-4)GlcNAc(b1-2)Man(a1-3)]Man(b1-4)GlcNAc(b1-4)[Fuc(a1-6)]GlcNAc
# In short: as §1
# [39] = molecular target: Gal(b1-4)GlcNAc(b1-2)[Gal(b1-4)GlcNAc(b1-6)]Man(a1-6)[GlcNAc(b1-4)][Gal(b1-4)GlcNAc(b1-2)Man(a1-3)]Man(b1-4)GlcNAc(b1-4)GlcNAc
# In short: as §1
# [40] = molecular target: Gal(b1-4)GlcNAc(b1-2)[Gal(b1-4)GlcNAc(b1-6)]Man(a1-6)[GlcNAc(b1-4)][Gal(b1-4)GlcNAc(b1-2)[Gal(b1-4)GlcNAc(b1-4)]Man(a1-3)]Man(b1-4)GlcNAc(b1-4)[Fuc(a1-6)]GlcNAc
# In short: as §1
# [41] = molecular target: Gal(b1-4)GlcNAc(b1-3)Gal(b1-3)GalNAc
# In short: as §1
# [42] = molecular target: Gal(b1-4)GlcNAc(b1-3)Gal(b1-3)GlcNAc
# In short: as §1
# [43] = molecular target: Gal(b1-4)GlcNAc(b1-3)Gal(b1-4)Glc
# In short: as §1
# [44] = molecular target: Gal(b1-4)GlcNAc(b1-3)Gal(b1-4)GlcNAc
# In short: as §1
# [45] = molecular target: Gal(b1-4)GlcNAc(b1-3)Gal(b1-4)GlcNAc(b1-2)Man(a1-3)[Gal(b1-4)GlcNAc(b1-3)Gal(b1-4)GlcNAc(b1-2)Man(a1-6)]Man(b1-4)GlcNAc(b1-4)GlcNAc
# In short: as §1
binder,measurement,setting,value
B1,glycan array binding signal (z-score),[1],-0.336
same,glycan array binding signal (z-score),[2],-0.513
same,glycan array binding signal (z-score),[3],0.394
same,glycan array binding signal (z-score),[4],-0.987
same,glycan array binding signal (z-score),[5],0.702
same,glycan array binding signal (z-score),[6],0.317
same,glycan array binding signal (z-score),[7],-1.68
same,glycan array binding signal (z-score),[8],-0.771
same,glycan array binding signal (z-score),[9],-0.176
same,glycan array binding signal (z-score),[10],-0.444
same,glycan array binding signal (z-score),[11],-0.199
same,glycan array binding signal (z-score),[12],0.299
same,glycan array binding signal (z-score),[13],1.23
same,glycan array binding signal (z-score),[14],0.137
same,glycan array binding signal (z-score),[15],0.995
same,glycan array binding signal (z-score),[16],-0.342
same,glycan array binding signal (z-score),[17],-0.256
same,glycan array binding signal (z-score),[18],-0.513
same,glycan array binding signal (z-score),[19],-0.048
same,glycan array binding signal (z-score),[20],-0.673
same,glycan array binding signal (z-score),[21],0.263
same,glycan array binding signal (z-score),[22],-0.886
same,glycan array binding signal (z-score),[23],-0.557
same,glycan array binding signal (z-score),[24],-0.349
same,glycan array binding signal (z-score),[25],0.308
same,glycan array binding signal (z-score),[26],-0.777
same,glycan array binding signal (z-score),[27],0.271
same,glycan array binding signal (z-score),[28],1.54
same,glycan array binding signal (z-score),[29],-1.05
same,glycan array binding signal (z-score),[30],1.96
same,glycan array binding signal (z-score),[31],-0.838
same,glycan array binding signal (z-score),[32],-0.406
same,glycan array binding signal (z-score),[33],3.29
same,glycan array binding signal (z-score),[34],-0.233
same,glycan array binding signal (z-score),[35],-1.23
same,glycan array binding signal (z-score),[36],1.35
same,glycan array binding signal (z-score),[37],0.866
same,glycan array binding signal (z-score),[38],-0.656
same,glycan array binding signal (z-score),[39],-1.88
same,glycan array binding signal (z-score),[40],-0.835
same,glycan array binding signal (z-score),[41],0.126
same,glycan array binding signal (z-score),[42],-0.036
same,glycan array binding signal (z-score),[43],-0.024
same,glycan array binding signal (z-score),[44],0.86
same,glycan array binding signal (z-score),[45],-0.317

# In a second layout: entries from further up.
binder | measurement | setting | value
B1 | glycan array binding signal (z-score) | [14] | 0.137
same | glycan array binding signal (z-score) | [15] | 0.995
same | glycan array binding signal (z-score) | [16] | -0.342
same | glycan array binding signal (z-score) | [20] | -0.673
same | glycan array binding signal (z-score) | [29] | -1.05
same | glycan array binding signal (z-score) | [32] | -0.406
same | glycan array binding signal (z-score) | [35] | -1.23
same | glycan array binding signal (z-score) | [43] | -0.024
same | glycan array binding signal (z-score) | [44] | 0.86
